# In patent EP0078757A1, “Imines of 2-(4-phenyl-piperazinylethyl) anilines, process for their preparation and their use in medicine” (CORTIAL S.A., priority 1981, dated 1983):
# At least one read-out could not be matched to a standard name with certainty. At least one compound was matched to its structure with a doubt left.
# Test system: sérotonine
# Assay: Antiserotonin activity in vitro
# Conditions: dose giving more than 80 % inhibition of serotonin in vitro
row,SMILES,Dose active
1,CN1CCC(=C2c3ccccc3C=Cc3ccccc32)CC1 [cyproheptadine],10^-6 g/ml
2,CN1CCN2c3ccccc3Cc3ccccc3C2C1 (centres unmarked) [miansérine],10^-5 g/ml
